US20230234923A1
These are yes or no findings as the source states them, for the method shown. In cells and extracts the contact can be indirect. Some binding calls cover weakened binding; strength is not graded here.

Tests used:
[1] = molecular target: T1, adiponectin receptor 1 (AdipoR1) (UniProt Q91VH1); assay: co-immunoprecipitation from LPS-induced RAW 264.7 cells (summary of the example)
T1 sequence (looked up): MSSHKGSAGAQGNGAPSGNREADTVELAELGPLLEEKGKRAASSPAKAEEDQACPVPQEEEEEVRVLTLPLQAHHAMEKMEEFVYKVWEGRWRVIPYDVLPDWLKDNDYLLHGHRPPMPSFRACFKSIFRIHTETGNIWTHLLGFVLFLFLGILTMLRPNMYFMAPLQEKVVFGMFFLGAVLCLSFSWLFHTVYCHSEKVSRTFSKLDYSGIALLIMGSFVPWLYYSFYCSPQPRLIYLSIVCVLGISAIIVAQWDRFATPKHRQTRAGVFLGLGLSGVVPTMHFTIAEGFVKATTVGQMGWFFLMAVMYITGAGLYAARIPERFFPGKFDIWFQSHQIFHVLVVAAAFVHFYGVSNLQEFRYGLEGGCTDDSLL

[2] = molecular target: T1, adiponectin receptor 1 (AdipoR1); assay: co-immunoprecipitation from RAW 264.7 lysates (anti-APPL1 or anti-MyD88 IP, immunoblot); control, LPS, AdipoAI or both
[3] = molecular target: T1, adiponectin receptor 1 (AdipoR1); assay: co-immunoprecipitation from LPS-induced RAW 264.7 cells (FIG. 6c)

Measured: binding

B1: APPL1 (adaptor protein containing pleckstrin homology domain, phosphotyrosine binding (PTB) domain, and leucine zipper motif) (protein, UniProt Q8K3H0 1-707, looked up)
chain: MPGIDKLPIEETLEDSPQTRSLLGVFEEDATAISNYMNQLYQAMHRIYDAQNELSAATHLTSKLLKEYEKQRFPLGGDDEVMSSTLQQFSKVIDELSSCHAVLSTQLADAMMFPISQFKERDLKEILTLKEVFQIASNDHDAAINRYSRLSKKRENDKVKYEVTEDVYTSRKKQHQTMMHYFCALNTLQYKKKIALLEPLLGYMQAQISFFKMGSENLNGQLEEFLANIGTSVQNVRREMDGDVETMQQTIEDLEVASDPLYLPDPDPTKFPINRNLTRKAGYLNARNKTGLVSSTWDRQFYFTQGGNLMSQARGDVAGGLAMDIDNCSVMAVDCEDRRYCFQITSFDGKKSSILQAESKKDHEEWICTINNISKQIYLSENPEETAARVNQSALEAVTPSPSFQQRHESLRPGGQSRPPTARTSSSGSLGSESTNLAALSLDSLVAPDTPIQFDIISPVCEDQPGQAKAFGQGGRRTNPFGESGGSTKSETEDSILHQLFIVRFLGSMEVKSDDHPDVVYETMRQILAARAIHNIFRMTESHLLVTCDCLKLIDPQTQVTRLTFPLPCVVLYATHQENKRLFGFVLRTSGGRSESNLSSVCYIFESNNEGEKICDSVGLAKQIALHAELDRRASEKQKEIERVKEKQQKELSKQKQIEKDLEEQSRLIAASSRPNQAGSEGQLVLSSSQSEESDLGEEGKKRESEA
binds: all assays above
